PubChem BioAssay AID1224830, NIAID, 2016

Purpose: 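Regulators of TLR4 signalling towards TNF-alpha in macrophage-like cells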 (primary screen)
Cells: human THP-1 monocytic leukaemia cells, TNF dual-luciferase reporter clone, PMA-differentiated to macrophage-like cells
Reagents: siRNA pool against human genes, 50 nM
Duration: LPS for 4 h, given about 3 days after siRNA transfection
Conditions: bacterial LPS (TLR4 ligand), 10 ng/ml
Read-out: 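TNF firefly reporter luminescence divided by renilla, normalised to the plate median, then turned into a robust z-score for each replicate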
Scale: TNF reporter robust z-score: higher = stronger TNF reporter response to LPS
Hit rule: 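Each well counts as active if its z-score is over 2.8 or under -1.5; controls are left without a call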
The whole screen tested about 18,000 reagents; this is a part drawn at random. Of all reagents, about 2,900 (16%) got an active call. 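Calls are made per well; low scores hint the gene aids the LPS response, high scores that it dampens it.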 A number with no mark means an inactive call. The numbers tell different reagents against one gene apart. Repeated entries: four replicate wells of each siRNA pool. No sequences are given here.

gene symbol	pool no.	TNF reporter robust z-score
PDGFD (platelet derived growth factor D)	1	-0.61
PDGFD (platelet derived growth factor D)	1	-1.05
PDGFD (platelet derived growth factor D)	1	-0.15
PDGFD (platelet derived growth factor D)	1	-0.48
AGBL1 (AGBL carboxypeptidase 1)	1	-1.39
AGBL1 (AGBL carboxypeptidase 1)	1	-1.66 (active)
AGBL1 (AGBL carboxypeptidase 1)	1	-1.28
AGBL1 (AGBL carboxypeptidase 1)	1	-0.85
KCNB1 (potassium voltage-gated channel subfamily B member 1)	1	-1.32
KCNB1 (potassium voltage-gated channel subfamily B member 1)	1	-0.44
KCNB1 (potassium voltage-gated channel subfamily B member 1)	1	-0.79
KCNB1 (potassium voltage-gated channel subfamily B member 1)	1	-0.53
ARID1B (AT-rich interaction domain 1B)	1	-1.53 (active)
ARID1B (AT-rich interaction domain 1B)	1	-1.93 (active)
ARID1B (AT-rich interaction domain 1B)	1	-1.83 (active)
ARID1B (AT-rich interaction domain 1B)	1	-1.84 (active)
NUDT15 (nudix hydrolase 15)	1	1.1
NUDT15 (nudix hydrolase 15)	1	4.48 (active)
NUDT15 (nudix hydrolase 15)	1	2.02
NUDT15 (nudix hydrolase 15)	1	-0.42
PADI6 (peptidyl arginine deiminase 6)	1	0.01
PADI6 (peptidyl arginine deiminase 6)	1	0.54
PADI6 (peptidyl arginine deiminase 6)	1	0.15
PADI6 (peptidyl arginine deiminase 6)	1	1.18
ALS2CL (ALS2 C-terminal like)	1	-0.34
ALS2CL (ALS2 C-terminal like)	1	-0.19
ALS2CL (ALS2 C-terminal like)	1	0.79
ALS2CL (ALS2 C-terminal like)	1	0.1
FMO2 (flavin containing dimethylaniline monoxygenase 2)	1	1.01
FMO2 (flavin containing dimethylaniline monoxygenase 2)	1	1.65
FMO2 (flavin containing dimethylaniline monoxygenase 2)	1	1.42
FMO2 (flavin containing dimethylaniline monoxygenase 2)	1	1.28
VEGFB (vascular endothelial growth factor B)	1	0.45
VEGFB (vascular endothelial growth factor B)	1	0.66
VEGFB (vascular endothelial growth factor B)	1	0.23
VEGFB (vascular endothelial growth factor B)	1	0.28
POFUT1 (protein O-fucosyltransferase 1)	1	-1.8 (active)
POFUT1 (protein O-fucosyltransferase 1)	1	-2.13 (active)
POFUT1 (protein O-fucosyltransferase 1)	1	-1.86 (active)
POFUT1 (protein O-fucosyltransferase 1)	1	-1.19
LIPT1 (lipoyltransferase 1)	1	-1.28
LIPT1 (lipoyltransferase 1)	1	0.07
LIPT1 (lipoyltransferase 1)	1	-0.71
LIPT1 (lipoyltransferase 1)	1	-0.07
CUTC (cutC copper transporter)	1	0.5
CUTC (cutC copper transporter)	1	0.31
CUTC (cutC copper transporter)	1	0.57
CUTC (cutC copper transporter)	1	0.56
DCAF10 (DDB1 and CUL4 associated factor 10)	1	0.61
DCAF10 (DDB1 and CUL4 associated factor 10)	1	0.43
DCAF10 (DDB1 and CUL4 associated factor 10)	1	0.15
DCAF10 (DDB1 and CUL4 associated factor 10)	1	1.21
OTUD6A (OTU deubiquitinase 6A)	1	-1.23
OTUD6A (OTU deubiquitinase 6A)	1	-1.51 (active)
OTUD6A (OTU deubiquitinase 6A)	1	-1.29
OTUD6A (OTU deubiquitinase 6A)	1	-1.45
CALML4 (calmodulin like 4)	1	-0.29
CALML4 (calmodulin like 4)	1	-0.44
CALML4 (calmodulin like 4)	1	-0.81
CALML4 (calmodulin like 4)	1	-0.39
TKFC (triokinase and FMN cyclase)	1	0.47
TKFC (triokinase and FMN cyclase)	1	-0.33
TKFC (triokinase and FMN cyclase)	1	0.18
TKFC (triokinase and FMN cyclase)	1	0.03
INHBE (inhibin subunit beta E)	1	-0.32
INHBE (inhibin subunit beta E)	1	-0.44
INHBE (inhibin subunit beta E)	1	-0.57
INHBE (inhibin subunit beta E)	1	0.18
AP4E1 (adaptor related protein complex 4 subunit epsilon 1)	1	-0.42
AP4E1 (adaptor related protein complex 4 subunit epsilon 1)	1	0.12
AP4E1 (adaptor related protein complex 4 subunit epsilon 1)	1	-0.22
AP4E1 (adaptor related protein complex 4 subunit epsilon 1)	1	0.85
ZBTB20 (zinc finger and BTB domain containing 20)	1	-1.3
ZBTB20 (zinc finger and BTB domain containing 20)	1	-0.66
ZBTB20 (zinc finger and BTB domain containing 20)	1	-1.08
ZBTB20 (zinc finger and BTB domain containing 20)	1	-0.65
LCOR (ligand dependent nuclear receptor corepressor)	1	1.28
LCOR (ligand dependent nuclear receptor corepressor)	1	0.89
LCOR (ligand dependent nuclear receptor corepressor)	1	1.5
LCOR (ligand dependent nuclear receptor corepressor)	1	2.84 (active)
LCOR (ligand dependent nuclear receptor corepressor)	2	-1.53 (active)
LCOR (ligand dependent nuclear receptor corepressor)	2	-1.06
LCOR (ligand dependent nuclear receptor corepressor)	2	-0.8
LCOR (ligand dependent nuclear receptor corepressor)	2	-0.39
ZNF512 (zinc finger protein 512)	1	1.88
ZNF512 (zinc finger protein 512)	1	1.45
ZNF512 (zinc finger protein 512)	1	-1.17
ZNF512 (zinc finger protein 512)	1	-0.69
SLC24A1	1	-0.04
SLC24A1	1	0.18
SLC24A1	1	0.3
SLC24A1	1	0.37
HMG20A (high mobility group 20A)	1	-1.62 (active)
HMG20A (high mobility group 20A)	1	-0.64
HMG20A (high mobility group 20A)	1	0.12
HMG20A (high mobility group 20A)	1	-0.06
OR1L6 (olfactory receptor family 1 subfamily L member 6)	1	2.49
OR1L6 (olfactory receptor family 1 subfamily L member 6)	1	2.03
OR1L6 (olfactory receptor family 1 subfamily L member 6)	1	-0.45
OR1L6 (olfactory receptor family 1 subfamily L member 6)	1	0.51
NIPBL (NIPBL cohesin loading factor)	1	-1.1
NIPBL (NIPBL cohesin loading factor)	1	-1.45
NIPBL (NIPBL cohesin loading factor)	1	-1.13
NIPBL (NIPBL cohesin loading factor)	1	-0.98
SEMG1 (semenogelin 1)	1	-1.46
SEMG1 (semenogelin 1)	1	-0.35
SEMG1 (semenogelin 1)	1	-1.19
SEMG1 (semenogelin 1)	1	-1.12
TMEM263 (transmembrane protein 263)	1	-1.36
TMEM263 (transmembrane protein 263)	1	-0.61
TMEM263 (transmembrane protein 263)	1	-0.5
TMEM263 (transmembrane protein 263)	1	0.22
ZFTRAF1 (zinc finger TRAF-type and ring finger containing 1)	1	2.15
ZFTRAF1 (zinc finger TRAF-type and ring finger containing 1)	1	2.21
ZFTRAF1 (zinc finger TRAF-type and ring finger containing 1)	1	0.95
ZFTRAF1 (zinc finger TRAF-type and ring finger containing 1)	1	1.29
PCGF1 (polycomb group ring finger 1)	1	0.82
PCGF1 (polycomb group ring finger 1)	1	3.31 (active)
PCGF1 (polycomb group ring finger 1)	1	1.24
PCGF1 (polycomb group ring finger 1)	1	1.32
LSS (lanosterol synthase)	1	-0.02
LSS (lanosterol synthase)	1	-0.24
LSS (lanosterol synthase)	1	-0.56
LSS (lanosterol synthase)	1	0.18
ELF4 (E74 like ETS transcription factor 4)	1	-1.41
ELF4 (E74 like ETS transcription factor 4)	1	-1.68 (active)
ELF4 (E74 like ETS transcription factor 4)	1	-0.82
ELF4 (E74 like ETS transcription factor 4)	1	-0.92
RASSF5 (Ras association domain family member 5)	1	-0.24
RASSF5 (Ras association domain family member 5)	1	1.45
RASSF5 (Ras association domain family member 5)	1	0.82
RASSF5 (Ras association domain family member 5)	1	0.67
SLC25A27	1	0.03
SLC25A27	1	-0.16
SLC25A27	1	-1.77 (active)
SLC25A27	1	-1.34
ZNF878 (zinc finger protein 878)	1	-0.35
ZNF878 (zinc finger protein 878)	1	-0.06
ZNF878 (zinc finger protein 878)	1	0.69
ZNF878 (zinc finger protein 878)	1	0.3
